From publication PMC5700813, “A recombinant BBSome core complex and how it interacts with ciliary cargo” (eLife, 2017) come the findings set out here.

Assay [1] deals with T1, BBS9 (full length) (human) (UniProt Q3SYG4).
T1 sequence: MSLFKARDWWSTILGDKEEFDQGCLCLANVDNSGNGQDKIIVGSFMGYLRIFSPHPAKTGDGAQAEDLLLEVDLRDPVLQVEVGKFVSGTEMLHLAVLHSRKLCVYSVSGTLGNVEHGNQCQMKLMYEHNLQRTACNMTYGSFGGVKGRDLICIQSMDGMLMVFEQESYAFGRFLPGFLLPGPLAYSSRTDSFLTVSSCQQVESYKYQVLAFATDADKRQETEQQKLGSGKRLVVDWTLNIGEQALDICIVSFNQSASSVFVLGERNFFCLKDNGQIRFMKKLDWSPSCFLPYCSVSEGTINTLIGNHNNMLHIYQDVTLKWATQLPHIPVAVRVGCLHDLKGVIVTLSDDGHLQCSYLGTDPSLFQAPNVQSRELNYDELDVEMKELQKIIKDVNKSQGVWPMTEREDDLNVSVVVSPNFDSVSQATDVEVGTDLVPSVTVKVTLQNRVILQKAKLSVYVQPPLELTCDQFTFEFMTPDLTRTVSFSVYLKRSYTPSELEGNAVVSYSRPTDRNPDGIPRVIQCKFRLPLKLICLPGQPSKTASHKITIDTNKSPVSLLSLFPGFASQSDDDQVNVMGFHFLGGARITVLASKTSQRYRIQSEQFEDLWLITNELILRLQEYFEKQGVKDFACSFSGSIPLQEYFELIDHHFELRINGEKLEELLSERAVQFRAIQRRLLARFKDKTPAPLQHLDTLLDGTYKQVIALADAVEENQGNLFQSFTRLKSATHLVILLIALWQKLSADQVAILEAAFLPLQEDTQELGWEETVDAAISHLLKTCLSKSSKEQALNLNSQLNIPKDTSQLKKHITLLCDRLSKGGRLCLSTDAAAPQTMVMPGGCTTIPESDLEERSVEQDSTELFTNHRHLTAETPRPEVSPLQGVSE
The assay is described as follows: co-expression and tandem affinity co-purification; subunits co-expressed in Hi5 insect cells; Strep/Flag tandem affinity purification; Coomassie-stained SDS-PAGE.

Assay [2] deals with T2, BBS9 N-terminal ß-propeller domain (residues 1–368) (human) (UniProt Q3SYG4).
T2 sequence: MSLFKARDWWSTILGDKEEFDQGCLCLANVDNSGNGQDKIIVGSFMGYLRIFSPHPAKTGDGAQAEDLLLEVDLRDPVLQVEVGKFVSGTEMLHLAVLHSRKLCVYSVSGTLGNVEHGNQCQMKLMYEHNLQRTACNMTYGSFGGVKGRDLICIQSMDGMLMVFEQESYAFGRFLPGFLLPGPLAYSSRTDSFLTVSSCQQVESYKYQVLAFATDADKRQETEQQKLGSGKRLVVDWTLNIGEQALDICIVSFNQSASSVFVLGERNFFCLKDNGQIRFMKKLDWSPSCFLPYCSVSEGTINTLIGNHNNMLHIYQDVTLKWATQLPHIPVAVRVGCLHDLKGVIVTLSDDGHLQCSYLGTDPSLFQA
The assay is described as above.

Assay [3] concerns the target T2, BBS9 N-terminal ß-propeller domain (residues 1–368) (human). The assay is described as follows: SEC; samples purified by affinity chromatography and gel filtration; 2.5–10 µg of the peak fraction on a Superdex 200 5/20 column; elution volume against standard proteins; both purified. A general note: In gel filtration, larger molecules generally elute earlier.
The target in assay [4] is T3, BBS9 C-terminal part (residues 363–887) (human) (UniProt Q3SYG4).
T3 sequence: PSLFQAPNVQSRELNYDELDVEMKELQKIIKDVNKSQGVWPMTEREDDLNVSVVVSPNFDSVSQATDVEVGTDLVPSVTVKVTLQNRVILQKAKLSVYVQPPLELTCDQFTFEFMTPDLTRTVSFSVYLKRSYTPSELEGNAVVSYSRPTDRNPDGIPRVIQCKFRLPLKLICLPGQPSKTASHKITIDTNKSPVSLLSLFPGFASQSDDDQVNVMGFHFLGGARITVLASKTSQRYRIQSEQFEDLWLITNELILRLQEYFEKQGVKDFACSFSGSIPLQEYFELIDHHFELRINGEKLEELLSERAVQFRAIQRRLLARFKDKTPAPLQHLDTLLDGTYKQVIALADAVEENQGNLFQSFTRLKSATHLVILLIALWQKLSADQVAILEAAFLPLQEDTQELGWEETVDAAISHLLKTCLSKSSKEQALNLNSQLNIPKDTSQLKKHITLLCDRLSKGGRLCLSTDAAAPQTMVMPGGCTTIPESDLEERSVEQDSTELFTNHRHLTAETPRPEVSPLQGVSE
The assay can be described thus: co-expression and tandem affinity co-purification; subunits co-expressed in Hi5 insect cells; Strep/Flag tandem affinity purification; Coomassie-stained SDS-PAGE.

These are yes or no findings as the source states them, for the method shown. Some results given as binding are weak or reduced against the parent protein; the word gives no strength.

B1: BBS2 (protein, UniProt Q9BXC9 1-721)
chain: MLLPVFTLKLRHKISPRMVAIGRYDGTHPCLAAATQTGKVFIHNPHTRNQHVSASRVFQSPLESDVSLLSINQAVSCLTAGVLNPELGYDALLVGTQTNLLAYDVYNNSDLFYREVADGANAIVLGTLGDISSPLAIIGGNCALQGFNHEGSDLFWTVTGDNVNSLALCDFDGDGKKELLVGSEDFDIRVFKEDEIVAEMTETEIVTSLCPMYGSRFGYALSNGTVGVYDKTSRYWRIKSKNHAMSIHAFDLNSDGVNELITGWSNGKVDARSDRTGEVIFKDNFSSAIAGVVEGDYRMDGHIQLICCSVDGEIRGYLPGTAEMRGNLMDTSAEQDLIRELSQKKQNLLLELRNYEENAKAELASPLNEADGHRGIIPANTRLHTTLSVSLGNETQTAHTELRISTSNDTIIRAVLIFAEGIFTGESHVVHPSIHNLSSSICIPIVPPKDVPVDLHLKAFVGYRSSTQFHVFESTRQLPRFSMYALTSLDPASEPISYVNFTIAERAQRVVVWLGQNFLLPEDTHIQNAPFQVCFTSLRNGGHLHIKIKLSGEITINTDDIDLAGDIIQSMASFFAIEDLQVEADFPVYFEELRKVLVKVDEYHSVHQKLSADMADHSNLIRSLLVGAEDARLMRDMKTMKSRYMELYDLNRDLLNGYKIRCNNHTELLGNLKAVNQAIQRAGRLRVGKPKNQVITACRDAIRSNNINTLFKIMRVGTASS
On to B1, for which, in assay [1], the binding entry is recorded as “binds”.

B2: BBS5 (protein, UniProt Q8N3I7-1 1-341)
chain: MSVLDALWEDRDVRFDLSAQQMKTRPGEVLIDCLDSIEDTKGNNGDRGRLLVTNLRILWHSLALSRVNVSVGYNCILNITTRTANSKLRGQTEALYILTKCNSTRFEFIFTNLVPGSPRLFTSVMAVHRAYETSKMYRDFKLRSALIQNKQLRLLPQEHVYDKINGVWNLSSDQGNLGTFFITNVRIVWHANMNDSFNVSIPYLQIRSIKIRDSKFGLALVIESSQQSGGYVLGFKIDPVEKLQESVKEINSLHKVYSASPIFGVDYEMEEKPQPLEALTVEQIQDDVEIDSDGHTDAFVAYFADGNKQQDREPVFSEELGLAIEKLKDGFTLQGLWEVMS
As for B2, the binding result in assay [1] and in assay [2] was “binds” in each case.

B3: BBS9 N-terminal ß-propeller domain (residues 1–368) (domain or fragment, UniProt Q3SYG4-1 1-368)
chain: T2 sequence
With B3, the binding result in assay [3] was “no binding”.

B4: BBS1 (protein, UniProt Q8NFJ9-1 1-593)
chain: MAAASSSDSDACGAESNEANSKWLDAHYDPMANIHTFSACLALADLHGDGEYKLVVGDLGPGGQQPRLKVLKGPLVMTESPLPALPAAAATFLMEQHEPRTPALALASGPCVYVYKNLRPYFKFSLPQLPPNPLEQDLWNQAKEDRIDPLTLKEMLESIRETAEEPLSIQSLRFLQLELSEMEAFVNQHKSNSIKRQTVITTMTTLKKNLADEDAVSCLVLGTENKELLVLDPEAFTILAKMSLPSVPVFLEVSGQFDVEFRLAAACRNGNIYILRRDSKHPKYCIELSAQPVGLIRVHKVLVVGSTQDSLHGFTHKGKKLWTVQMPAAILTMNLLEQHSRGLQAVMAGLANGEVRIYRDKALLNVIHTPDAVTSLCFGRYGREDNTLIMTTRGGGLIIKILKRTAVFVEGGSEVGPPPAQAMKLNVPRKTRLYVDQTLREREAGTAMHRAFQTDLYLLRLRAARAYLQALESSLSPLSTTAREPLKLHAVVQGLGPTFKLTLHLQNTSTTRPVLGLLVCFLYNEALYSLPRAFFKVPLLVPGLNYPLETFVESLSNKGISDIIKVLVLREGQSAPLLSAHVNMPGSEGLAAA
Take B4: the binding result in assay [1] and in assay [4] was “binds” each time.
